The values below come from paper doi:10.1101/2023.08.01.551478, “A feedback control mechanism governs the synthesis of lipid-linked precursors of the bacterial cell wall” (bioRxiv, 2023).

The chains behind the UniProt entries cited, without tags or fusion partners.
UniProt P0A9K9: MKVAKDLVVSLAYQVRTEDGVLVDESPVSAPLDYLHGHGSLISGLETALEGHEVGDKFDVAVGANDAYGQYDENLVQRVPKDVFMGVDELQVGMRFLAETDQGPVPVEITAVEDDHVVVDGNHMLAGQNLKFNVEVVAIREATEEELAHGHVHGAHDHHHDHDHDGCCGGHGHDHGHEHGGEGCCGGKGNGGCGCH

The assay concerns the target T1, E. coli MraY(T23P) (E. coli) (UniProt P0A6W3).
T1 sequence: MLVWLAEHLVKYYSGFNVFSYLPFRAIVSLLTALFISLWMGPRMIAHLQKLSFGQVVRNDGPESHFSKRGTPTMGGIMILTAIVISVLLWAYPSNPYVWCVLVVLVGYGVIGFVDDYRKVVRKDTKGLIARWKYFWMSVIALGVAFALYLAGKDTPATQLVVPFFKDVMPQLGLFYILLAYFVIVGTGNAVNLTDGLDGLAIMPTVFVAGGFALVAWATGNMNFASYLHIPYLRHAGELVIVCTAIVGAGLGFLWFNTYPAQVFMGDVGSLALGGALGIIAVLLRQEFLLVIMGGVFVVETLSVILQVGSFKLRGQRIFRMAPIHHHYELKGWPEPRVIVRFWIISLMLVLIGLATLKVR
Nature of the assay: cryo-EM structure; YES complex of EcMraY(T23P), protein E and SlyD, obtained with the methodologies of ref. 31; focused refinement of MraY alone; processed with cryosparc v3.2.0; both purified.

No constants are given. Whether binding was seen depends on the method and setting. Some results given as binding are weak or reduced against the parent protein; the word gives no strength.

As for “E. coli chaperone SlyD (from UniProt P0A9K9 1-196)”, the binding result is “binds”.
